# Primary screen of a compound library

Sequences of proteins named here, by UniProt entry; tags and fusion partners are left off. Residues count along the entry.
UniProt P9WNZ1, whole entry: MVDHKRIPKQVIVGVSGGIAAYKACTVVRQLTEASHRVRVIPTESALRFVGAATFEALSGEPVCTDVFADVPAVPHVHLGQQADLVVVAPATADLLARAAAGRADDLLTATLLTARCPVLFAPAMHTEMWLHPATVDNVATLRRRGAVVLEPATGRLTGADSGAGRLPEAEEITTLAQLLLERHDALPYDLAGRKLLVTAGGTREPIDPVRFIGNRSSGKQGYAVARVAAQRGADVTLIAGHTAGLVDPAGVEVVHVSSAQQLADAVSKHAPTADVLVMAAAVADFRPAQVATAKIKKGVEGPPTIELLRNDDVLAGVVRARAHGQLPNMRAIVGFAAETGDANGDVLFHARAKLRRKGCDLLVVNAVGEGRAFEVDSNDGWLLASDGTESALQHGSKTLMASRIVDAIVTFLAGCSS
UniProt I6X8D2, whole entry: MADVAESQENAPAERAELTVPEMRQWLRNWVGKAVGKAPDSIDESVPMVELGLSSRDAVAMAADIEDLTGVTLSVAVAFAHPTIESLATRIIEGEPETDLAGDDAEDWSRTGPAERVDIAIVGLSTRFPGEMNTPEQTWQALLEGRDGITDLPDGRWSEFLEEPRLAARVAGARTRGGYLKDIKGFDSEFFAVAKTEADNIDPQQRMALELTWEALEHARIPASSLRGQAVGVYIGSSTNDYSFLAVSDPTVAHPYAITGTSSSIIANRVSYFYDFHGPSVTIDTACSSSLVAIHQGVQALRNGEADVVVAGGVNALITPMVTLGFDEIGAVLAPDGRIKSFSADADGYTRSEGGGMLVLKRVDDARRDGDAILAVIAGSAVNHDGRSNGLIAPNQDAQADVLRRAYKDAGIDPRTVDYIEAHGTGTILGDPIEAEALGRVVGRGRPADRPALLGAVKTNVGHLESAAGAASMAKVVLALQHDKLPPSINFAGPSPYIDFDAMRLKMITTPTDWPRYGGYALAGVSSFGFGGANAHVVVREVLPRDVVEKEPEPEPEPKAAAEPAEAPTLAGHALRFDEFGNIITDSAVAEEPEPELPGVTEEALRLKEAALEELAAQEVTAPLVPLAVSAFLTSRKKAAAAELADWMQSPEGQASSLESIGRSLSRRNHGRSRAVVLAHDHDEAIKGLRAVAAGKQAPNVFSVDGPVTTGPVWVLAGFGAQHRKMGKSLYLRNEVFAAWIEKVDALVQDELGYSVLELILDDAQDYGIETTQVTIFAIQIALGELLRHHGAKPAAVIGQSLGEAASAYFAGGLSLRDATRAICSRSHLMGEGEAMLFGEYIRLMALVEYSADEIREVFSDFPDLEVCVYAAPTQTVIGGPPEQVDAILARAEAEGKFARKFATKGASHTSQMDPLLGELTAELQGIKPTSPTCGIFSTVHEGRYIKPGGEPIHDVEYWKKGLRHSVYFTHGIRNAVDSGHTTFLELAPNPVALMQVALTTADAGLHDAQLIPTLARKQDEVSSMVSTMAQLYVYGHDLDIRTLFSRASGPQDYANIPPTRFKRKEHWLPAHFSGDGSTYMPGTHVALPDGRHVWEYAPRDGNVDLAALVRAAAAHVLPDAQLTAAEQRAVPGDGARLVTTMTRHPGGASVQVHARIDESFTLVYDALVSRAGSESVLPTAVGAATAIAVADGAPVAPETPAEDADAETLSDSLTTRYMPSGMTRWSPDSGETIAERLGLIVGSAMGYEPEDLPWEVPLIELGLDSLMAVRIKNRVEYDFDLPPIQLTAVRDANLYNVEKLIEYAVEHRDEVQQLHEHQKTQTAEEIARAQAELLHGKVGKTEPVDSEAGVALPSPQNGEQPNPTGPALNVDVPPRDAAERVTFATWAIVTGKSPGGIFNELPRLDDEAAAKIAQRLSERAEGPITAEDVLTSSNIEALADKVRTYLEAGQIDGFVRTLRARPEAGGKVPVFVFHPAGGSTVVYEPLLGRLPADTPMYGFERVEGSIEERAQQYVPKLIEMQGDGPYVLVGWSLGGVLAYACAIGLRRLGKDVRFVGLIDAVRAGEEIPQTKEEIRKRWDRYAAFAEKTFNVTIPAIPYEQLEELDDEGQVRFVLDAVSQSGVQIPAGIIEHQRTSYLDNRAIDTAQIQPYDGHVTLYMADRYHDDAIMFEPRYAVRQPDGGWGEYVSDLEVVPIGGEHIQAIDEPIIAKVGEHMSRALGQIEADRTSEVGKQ
UniProt P9WPC5, whole entry: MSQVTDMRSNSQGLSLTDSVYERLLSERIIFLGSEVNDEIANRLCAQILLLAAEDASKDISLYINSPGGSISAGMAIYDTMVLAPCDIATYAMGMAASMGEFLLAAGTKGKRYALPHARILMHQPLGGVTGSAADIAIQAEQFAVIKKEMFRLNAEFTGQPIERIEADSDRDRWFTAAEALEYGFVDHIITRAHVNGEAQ
UniProt P9WPC3, whole entry partner: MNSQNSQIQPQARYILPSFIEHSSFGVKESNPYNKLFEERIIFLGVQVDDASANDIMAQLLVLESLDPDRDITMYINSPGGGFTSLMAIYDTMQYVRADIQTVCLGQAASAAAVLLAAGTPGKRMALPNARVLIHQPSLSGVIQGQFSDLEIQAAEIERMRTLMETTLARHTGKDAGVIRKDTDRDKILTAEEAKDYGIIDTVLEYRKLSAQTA
UniProt A4I591, 1-473: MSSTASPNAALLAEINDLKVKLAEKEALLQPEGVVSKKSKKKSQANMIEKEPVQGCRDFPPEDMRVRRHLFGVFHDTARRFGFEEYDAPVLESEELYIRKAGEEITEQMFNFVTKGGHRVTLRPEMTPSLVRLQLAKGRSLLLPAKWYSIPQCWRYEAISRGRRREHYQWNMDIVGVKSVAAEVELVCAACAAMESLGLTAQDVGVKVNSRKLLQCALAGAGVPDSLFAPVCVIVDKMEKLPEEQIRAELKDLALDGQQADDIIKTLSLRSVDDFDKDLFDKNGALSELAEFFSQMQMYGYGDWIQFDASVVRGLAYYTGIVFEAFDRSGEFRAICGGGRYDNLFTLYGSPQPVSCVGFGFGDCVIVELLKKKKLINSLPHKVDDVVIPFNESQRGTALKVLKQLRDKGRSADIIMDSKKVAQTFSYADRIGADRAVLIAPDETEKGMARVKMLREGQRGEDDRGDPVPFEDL
UniProt P9WFT3, whole entry: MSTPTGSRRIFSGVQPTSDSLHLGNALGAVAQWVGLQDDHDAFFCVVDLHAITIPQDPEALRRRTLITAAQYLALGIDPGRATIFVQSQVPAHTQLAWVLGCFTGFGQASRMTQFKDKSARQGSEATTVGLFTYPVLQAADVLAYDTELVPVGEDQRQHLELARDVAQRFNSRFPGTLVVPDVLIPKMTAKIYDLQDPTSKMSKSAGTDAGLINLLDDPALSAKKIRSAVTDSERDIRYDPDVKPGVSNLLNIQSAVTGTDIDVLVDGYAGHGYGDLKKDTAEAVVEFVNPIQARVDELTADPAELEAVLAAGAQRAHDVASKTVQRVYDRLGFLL

The values are deposited in ChEMBL (CHEMBL3988442, “University of Dundee, Small-Polar-MMV Screening Library” (2021)).

CoaBC: 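Coenzyme A biosynthesis protein CoaBC, Mycobacterium tuberculosis (UniProt P9WNZ1). Enzyme assay of CoaBC with a phosphate dye (Biomol Green) read at 650 nm. Compounds at 30 µM. Direction is inferred from only a few compounds that gave an IC50; most scored high, so higher reads as stronger inhibition. Most strong results did not repeat in a second test. About 67,000 compounds were tested under these conditions; 0.06% (about 40) showed 50% or more at least once.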
Pks13 thioesterase: 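Enzyme assay of the thioesterase domain of polyketide synthase 13; the read-out is not stated. Target: Polyketide synthase Pks13, Mycobacterium tuberculosis (UniProt I6X8D2). Tested at 30 µM. Higher reads as stronger inhibition (inferred from which compounds were picked for retests). Of about 67,000 compounds tested this way, about 300 (0.46%) reached 50% or more in at least one test.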
ClpP1P2: 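Protease assay of ClpP1P2, read by the AMC dye that it sets free. Target: ClpP1P2, Mycobacterium tuberculosis (UniProt P9WPC5 and UniProt P9WPC3). Compounds at 50 µM. Higher reads as stronger inhibition, judged from the few compounds that gave an IC50. Most other retested compounds had strongly negative values. Of about 69,000 compounds tested this way, about 10 (0.015%) reached 50% or more in at least one test.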
Toxoplasma: 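Assay of Toxoplasma gondii numbers, read through their beta-galactosidase reporter with a colour substrate. Compounds at 10 µM. Higher reads as fewer parasites (inferred from which compounds were picked for retests). Size under these conditions: about 67,000 compounds, about 260 of them at 50% or above in at least one test.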
LiHisRS: 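Enzyme assay of histidyl-tRNA synthetase; the read-out is not stated. Target: Histidine-tRNA ligase, Leishmania infantum (UniProt A4I591). Compounds at 30 µM. Direction is inferred from retests: higher values go with stronger inhibition. The assay is labelled LdHisRS but filed under L. infantum. About 69,000 compounds were tested under these conditions; 0.6% (about 410) showed 50% or more at least once.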
MtTrpRS: 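Tryptophan-tRNA ligase, Mycobacterium tuberculosis (UniProt P9WFT3). Enzyme assay of tryptophanyl-tRNA synthetase; the read-out is not stated. Concentration: 10 µM. Higher most likely means stronger inhibition; the record gives no direction and few retests gave an IC50. Size under these conditions: about 65,000 compounds, about 64 of them at 50% or above in at least one test.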

Each number is a percent effect as filed. The record does not define 0% and 100%; most values in the screen are far below 50% and negative numbers occur (in some assays of this library far below -100). Compounds were drawn at random from those tested, without regard to their results.

For CCCc1ccc(C(=O)N2Cc3c(Cn4ccnc4)nn(C)c3C2)cc1 the result was CoaBC: 2.596%; Pks13 thioesterase: -18.33%; ClpP1P2: -8.019%; LiHisRS: 11%; MtTrpRS: -2.957%.
For CNC(=O)C1CN(c2ccc(F)cc2)CCN1 (stereo not shown) the result was CoaBC: 10.68%; Pks13 thioesterase: -1.04%; ClpP1P2: -7.25%; LiHisRS: 8.571%; MtTrpRS: 9.655%.
For CN1CC(C(=O)NC(C)(C)CNC(=O)OC(C)(C)C)CC1=O (stereo not shown) the result was CoaBC: -7.725%; Pks13 thioesterase: 11.85%; ClpP1P2: 0.6512%; Toxoplasma: 0.6377%; LiHisRS: 1.639%; MtTrpRS: 15.57%.
For Cc1cc(NCCC(=O)NC2CCS(=O)(=O)C2)nc(-c2ccncc2)n1 (stereo not shown) the result was CoaBC: 2.87%; Pks13 thioesterase: -34.27%; ClpP1P2: 3.25%; Toxoplasma: 17.14%; LiHisRS: 19.47%; MtTrpRS: 2.867%.
For Cc1nc(C2CCCN2CC(=O)Nc2c(C)n[nH]c2C)no1 (stereo not shown) the result was CoaBC: -0.3871%; Pks13 thioesterase: -9.074%; ClpP1P2: 31.63%; Toxoplasma: 12.51%; LiHisRS: -3.478%; MtTrpRS: 13.24%.
For Cc1c(NC(=O)NC(C)CCO)cccc1OC1CCCC1 (stereo not shown) the result was CoaBC: -3.694%; Pks13 thioesterase: -34.85%; ClpP1P2: -1.053%; Toxoplasma: 8.835%; LiHisRS: 9.326%; MtTrpRS: -0.7157%.
For O=C(CC1OCCc2ccccc21)NCCn1cccc1 (stereo not shown) the result was CoaBC: -0.8032%; Pks13 thioesterase: -29.27%; ClpP1P2: -5.293%; Toxoplasma: -3.91%; LiHisRS: 13.43%; MtTrpRS: 4.641%.
For CC(O)CCN(C)S(=O)(=O)Cc1ccc(Br)cc1 (stereo not shown) the result was CoaBC: -2.871%; Pks13 thioesterase: -8.975%; ClpP1P2: 9.375%; Toxoplasma: 4.74%; LiHisRS: 5%; MtTrpRS: -7.282%.
For [H][C@@]12CO[C@@H](CNC(=O)c3cnn(C)c3)[C@]1([H])CCN(S(C)(=O)=O)C2 the result was Toxoplasma: 16.98%.
For CCCOCCN1CCC2(CC1)CC(=O)N(Cc1cc(F)cc(F)c1)C2 the result was CoaBC: 3.008%; Pks13 thioesterase: -5.736%; ClpP1P2: 7.59%; Toxoplasma: 25.82%; LiHisRS: 17.98%; MtTrpRS: 0.1467%.
For CCNC(=O)NCc1ccccc1NS(=O)(=O)c1ccccc1 the result was CoaBC: 8.46%; Pks13 thioesterase: -13.55%; ClpP1P2: 0.9248%; Toxoplasma: 9.197%; LiHisRS: 18.75%; MtTrpRS: -1.874%.
For CN(CCn1ccc2ccccc21)C(=O)CS(C)(=O)=O the result was CoaBC: 6.112%; Pks13 thioesterase: -102.1%; ClpP1P2: 5.246%; Toxoplasma: -5.664%; LiHisRS: 32.88%; MtTrpRS: 5.216%.
For O=C(O)C(F)(F)F.[H][C@]12CCC[C@@H](CN(C)C)[C@@]1([H])CN(c1cccnc1)C2 the result was Toxoplasma: -29.82%.

For reference, 2 entries once more:

- Cc1c(NC(=O)NC(C)CCO)cccc1OC1CCCC1 (stereo not shown) : CoaBC: -3.694%; Pks13 thioesterase: -34.85%; ClpP1P2: -1.053%; Toxoplasma: 8.835%; LiHisRS: 9.326%; MtTrpRS: -0.7157%
- O=C(CC1OCCc2ccccc21)NCCn1cccc1 (stereo not shown) : CoaBC: -0.8032%; Pks13 thioesterase: -29.27%; ClpP1P2: -5.293%; Toxoplasma: -3.91%; LiHisRS: 13.43%; MtTrpRS: 4.641%